The nature of this series: general procedure: Fmoc solid-phase peptide synthesis; 2-chlorotrityl chloride resin (1.55 mmol/g); HBTU/DIEA. Particulars: whole synthesis.

As for IsoGalanin, the “crude HPLC purity” value (214 nm) is 85%. Moreover, where the note is “scale 0.1 mmol”, the crude mass was found to be 180 mg and the crude yield is 85%.

The values above are taken from patent publication US9206222 (dated 2015).
